Source: patent publication US9579315B2, “Methods of treating obstructive lung diseases using bitter tastants” (UNIVERSITY OF MARYLAND, BALTIMORE, priority 2010, dated 2017)
For part of these data: At least one structure is not confirmed: it was looked up by name or label, or the drawing left a doubt. Some results were stated once for a whole list of compounds, not compound by compound.

Tests used:
human ASM cells = assay: PKA-mediated VASP phosphorylation, Western blot in human ASM cells; type: cell-based; conditions: 1.0 mM chloroquine or saccharin, 10 μM forskolin
intact mouse tracheas = assay: Ex vivo relaxation of intact mouse tracheal rings (isometric myograph); conditions: tracheas contracted with 1.0 mM acetylcholine
Method: Briefly, tracheal rings fitted between a fixed wire and a transducer-coupled wire were maintained in Krebs buffer at 37° C. with aeration from 95% O2, 5% CO2.
Dose response curves for [Ca^2+]i and ex vivo tracheal ring studies were analyzed by iterative non-linear (sigmoidal) least squares fitting. Results from all studies were compared using paired or unpaired two-way t-tests (depending on study design), with P<0.05 considered significant. When multiple comparisons were sought, an ANOVA with post-hoc t-tests was utilized with a correction for multiple comparisons. Data are presented as mean±standard error.

Row | SMILES | PKA-mediated VASP phosphorylation (human ASM cells) | maximal relaxation response, loss of active contraction / reduction in active tension (intact mouse tracheas)
1 | C=C[C@@]1(C)CC(=O)[C@]2(O)[C@@]3(C)[C@@H](O)CCC(C)(C)[C@@H]3[C@H](O)[C@H](OC(C)=O)[C@@]2(C)O1 [Forskolin, forskolin] | resulted in phosphorylation of VASP | –
2 | CC[N+](CC)(CC(=O)Nc1c(C)cccc1C)Cc1ccccc1 [denatonium] | – | > 90%
3 | C=C[C@H]1C[N@@]2CC[C@H]1C[C@H]2[C@H](O)c1ccnc2ccc(OC)cc12 [quinine] | – | > 90%
